Source: patent US8680059B2, “Oligopeptide acetate and formulations thereof” (Biotempt B.V., priority 1998, dated 2014)
At least one peptide structure holds a part that was inferred or is arguable (an end, a ring closure or a residue). Peptide text beside a SMILES is read from it.

System: whole blood cell proliferation
Experiment: Whole blood cell proliferation biological assay (Phase I Part 1)
Conditions: human, established during Part 1 of the study

## CC(C)[C@H](NC(=O)CNC(=O)[C@H](CCC(N)=O)NC(=O)[C@H](C)N)C(=O)O [EA-230, H-Ala-Gln-Gly-Val-OH.xAcOH] (H-AQGV-OH)
  most effective dose: 10 mg/kg
